Source: article PMC9308285
Results are given in words; binding and its absence hold for the method and conditions named. In cells and extracts the contact can be indirect. Some binding calls cover weakened binding; strength is not graded here.

How the values were obtained:
[1] = target: T1, Annexin-A1 (mouse (endogenous in primary microglia)) (UniProt P10107); test: co-IP; lysates of primary cultured mouse microglia infected with adenovirus encoding vector, SENP6, sh.NC or sh.SENP6; IP buffer with NEM or protease inhibitor mixture; antibody 12 h at 4 °C, protein A/G plus agarose 4 h at 4 °C, washed three times with PBS; immunoblot; which protein was precipitated is not told
T1 sequence: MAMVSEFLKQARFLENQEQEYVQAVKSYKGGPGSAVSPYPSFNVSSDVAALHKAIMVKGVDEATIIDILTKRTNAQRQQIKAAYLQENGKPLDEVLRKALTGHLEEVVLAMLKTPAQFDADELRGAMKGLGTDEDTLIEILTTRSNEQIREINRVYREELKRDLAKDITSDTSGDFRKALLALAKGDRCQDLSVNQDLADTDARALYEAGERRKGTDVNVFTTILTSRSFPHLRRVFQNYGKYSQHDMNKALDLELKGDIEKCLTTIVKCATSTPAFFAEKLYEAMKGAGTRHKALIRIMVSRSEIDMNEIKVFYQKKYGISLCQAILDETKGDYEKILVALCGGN

[2] = target: T2, NBR1 (mouse (endogenous in primary microglia)) (UniProt P97432); test: as above
T2 sequence: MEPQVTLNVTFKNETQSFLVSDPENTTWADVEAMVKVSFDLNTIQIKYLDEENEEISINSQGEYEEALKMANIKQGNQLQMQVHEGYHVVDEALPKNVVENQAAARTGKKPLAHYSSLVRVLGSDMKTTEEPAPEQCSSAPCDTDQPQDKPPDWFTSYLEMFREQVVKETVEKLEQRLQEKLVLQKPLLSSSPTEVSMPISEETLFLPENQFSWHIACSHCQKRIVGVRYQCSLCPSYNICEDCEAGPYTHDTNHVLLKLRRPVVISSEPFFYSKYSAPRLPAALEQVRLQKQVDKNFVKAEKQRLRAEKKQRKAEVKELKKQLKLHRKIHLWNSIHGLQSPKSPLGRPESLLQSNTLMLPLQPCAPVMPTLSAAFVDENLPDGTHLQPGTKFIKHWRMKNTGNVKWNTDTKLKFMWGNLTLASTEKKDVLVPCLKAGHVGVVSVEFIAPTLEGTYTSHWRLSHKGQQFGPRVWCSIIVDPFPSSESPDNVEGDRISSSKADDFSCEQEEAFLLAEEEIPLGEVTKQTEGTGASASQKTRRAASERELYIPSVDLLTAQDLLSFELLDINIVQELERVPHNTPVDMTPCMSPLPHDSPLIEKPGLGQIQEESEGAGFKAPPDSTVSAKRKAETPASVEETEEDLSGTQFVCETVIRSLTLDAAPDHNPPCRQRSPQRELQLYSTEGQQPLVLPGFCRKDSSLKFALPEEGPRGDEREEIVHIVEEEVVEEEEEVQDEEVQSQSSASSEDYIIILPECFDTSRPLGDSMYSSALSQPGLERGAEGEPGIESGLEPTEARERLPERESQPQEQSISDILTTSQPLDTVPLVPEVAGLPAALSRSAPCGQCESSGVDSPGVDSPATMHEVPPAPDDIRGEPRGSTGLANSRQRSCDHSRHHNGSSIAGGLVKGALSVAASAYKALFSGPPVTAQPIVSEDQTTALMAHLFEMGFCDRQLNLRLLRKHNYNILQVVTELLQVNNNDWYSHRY

B1: IκB kinase α (protein, UniProt Q60680 1-745)
chain: MERPPGLRPGAGGPWEMRERLGTGGFGNVSLYQHRELDLKIAIKSCRLELSSKNRERWCHEIQIMKKLDHANVVKACDVPEELNFLINDVPLLAMEYCSGGDLRKLLNKPENCCGLKESQILSLLSDIGSGIRYLHENKIIHRDLKPENIVLQDVGGKTIHKIIDLGYAKDVDQGSLCTSFVGTLQYLAPELFENKPYTATVDYWSFGTMVFECIAGYRPFLHHLQPFTWHEKIKKKDPKCIFACEEMTGEVRFSSHLPQPNSLCSLIVEPMESWLQLMLNWDPQQRGGPIDLTLKQPRCFALMDHILNLKIVHILNMTSAKIISFLLPCDESLHSLQSRIERETGINTGSQELLSETGISLDPRKPASQCVLDGVRGCDSYMVYLFDKSKTVYEGPFASRSLSDCVNYIVQDSKIQLPIIQLRKVWAEAVHYVSGLKEDYSRLFQGQRAAMLSLLRYNANLTKMKNTLISASQQLKAKLEFFRKSIQLDLERYSEQMTYGISSEKMLKAWKEMEEKAIHYSEVGVIGYLEDQIMSLHTEIMELQKSPYGRRQGDLMESLEQRAIDLYKQLKHRPPDHLYSDSTEMVKIIVHTVQSQDRVLKELFGHLSKLLGCKQKIIDLLPKVEVALSNIKEADNTVMFMQGKRQKEIWHLLKIACTQSSARSLVGSSLEGTVTPPVSAWLPPTLADREHPLTCVVTPQDGETLAQMIEENLNCLGHLSTIIREANEDQSSSLMSLDWSWLAE
[1]
  binding: binds
[2]
  binding: binds
